PMC12119004
These are yes or no findings as the source states them, for the method shown. Some entries that bind do so weakly or less than the wild type.

Amino acid sequences for entries named in this document (tags omitted).
UniProt P62136: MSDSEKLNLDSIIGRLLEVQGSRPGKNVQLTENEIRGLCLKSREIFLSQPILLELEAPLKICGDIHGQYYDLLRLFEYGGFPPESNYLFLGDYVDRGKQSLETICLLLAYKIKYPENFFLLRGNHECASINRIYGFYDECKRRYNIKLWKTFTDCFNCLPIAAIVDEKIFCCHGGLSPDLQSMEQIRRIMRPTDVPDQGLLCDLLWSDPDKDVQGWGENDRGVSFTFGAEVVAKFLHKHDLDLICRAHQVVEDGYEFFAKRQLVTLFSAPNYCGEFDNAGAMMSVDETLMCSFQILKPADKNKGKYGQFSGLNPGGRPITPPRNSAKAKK

T1: MIC25 (UniProt Q9BRQ6)
T1 sequence: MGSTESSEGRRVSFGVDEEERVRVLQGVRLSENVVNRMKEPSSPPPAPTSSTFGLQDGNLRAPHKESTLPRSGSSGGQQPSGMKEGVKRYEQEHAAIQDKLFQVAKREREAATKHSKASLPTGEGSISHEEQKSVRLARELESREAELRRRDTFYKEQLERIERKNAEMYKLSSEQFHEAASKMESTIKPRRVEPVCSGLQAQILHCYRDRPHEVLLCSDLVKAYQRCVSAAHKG

B1: APOO (protein, UniProt Q9BUR5 1-198)
chain: MFKVIQRSVGPASLSLLTFKVYAAPKKDSPPKNSVKVDELSLYSVPEGQSKYVEEARSQLEESISQLRHYCEPYTTWCQETYSQTKPKMQSLVQWGLDSYDYLQNAPPGFFPRLGVIGFAGLIGLLLARGSKIKKLVYPPGFMGLAASLYYPQQAIVFAQVSGERLYDWGLRGYIVIEDLWKENFQKPGNVKNSPGTK
B2: IMMT (protein, UniProt Q16891 1-758)
chain: MLRACQLSGVTAAAQSCLCGKFVLRPLRPCRRYSTSGSSGLTTGKIAGAGLLFVGGGIGGTILYAKWDSHFRESVEKTIPYSDKLFEMVLGPAAYNVPLPKKSIQSGPLKISSVSEVMKESKQPASQLQKQKGDTPASATAPTEAAQIISAAGDTLSVPAPAVQPEESLKTDHPEIGEGKPTPALSEEASSSSIRERPPEEVAARLAQQEKQEQVKIESLAKSLEDALRQTASVTLQAIAAQNAAVQAVNAHSNILKAAMDNSEIAGEKKSAQWRTVEGALKERRKAVDEAADALLKAKEELEKMKSVIENAKKKEVAGAKPHITAAEGKLHNMIVDLDNVVKKVQAAQSEAKVVSQYHELVVQARDDFKRELDSITPEVLPGWKGMSVSDLADKLSTDDLNSLIAHAHRRIDQLNRELAEQKATEKQHITLALEKQKLEEKRAFDSAVAKALEHHRSEIQAEQDRKIEEVRDAMENEMRTQLRRQAAAHTDHLRDVLRVQEQELKSEFEQNLSEKLSEQELQFRRLSQEQVDNFTLDINTAYARLRGIEQAVQSHAVAEEEARKAHQLWLSVEALKYSMKTSSAETPTIPLGSAVEAIKANCSDNEFTQALTAAIPPESLTRGVYSEETLRARFYAVQKLARRVAMIDETRNSLYQYFLSYLQSLLLFPPQQLKPPPELCPEDINTFKLLSYASYCIEHGDLELAAKFVNQLKGESRRVAQDWLKEARMTLETKQIVEILTAYASAVGIGTTQVQPE

Biological target: T1, MIC25
Experiment: two-hybrid; MIC25 as bait in BD-pGBKT7, preys in AD-pGADT7; yeast AH109/Y187; mating test, beta-gal colour development at 30°C

Row | binding | Molecule
1 | binds | PPP1CA (from UniProt P62136 1-330) (enzyme)
2 | binds | B1
3 | binds | B2
